Values quoted from earlier work as cited in patent publication US20210213090A1, “COMPOSITIONS, USES AND METHODS FOR TREATMENT AND/OR PREVENTION OF ELEVATED CHOLESTEROL, HYPERCHOLESTEROLEMIA, AND CARDIOVASCULAR DISEASE” (Nutraceutical Holdings Inc., priority 2018, published 2021).
At least one structure is not confirmed: it was looked up by name or label, or the drawing left a doubt.

System: patients with hypercholesterolemia

CC[C@H](C)C(=O)O[C@H]1C[C@H](O)C=C2C=C[C@H](C)[C@H](CC[C@@H](O)C[C@@H](O)CC(=O)O)[C@H]21 [pravastatin]
mean percent change for LDL-C (6-month treatment, used as null value): −24% | reduction of LDL-C (6 month course of therapy): 24%
